In paper PMC7862700 one finds binding signal data, which are given here for 39 sequences.

By UniProt entry, the sequences of proteins in these tests, tags left out. Where a name states a change or a piece, a line headed by the entry shows the natural chain unless it says otherwise.
UniProt O43186: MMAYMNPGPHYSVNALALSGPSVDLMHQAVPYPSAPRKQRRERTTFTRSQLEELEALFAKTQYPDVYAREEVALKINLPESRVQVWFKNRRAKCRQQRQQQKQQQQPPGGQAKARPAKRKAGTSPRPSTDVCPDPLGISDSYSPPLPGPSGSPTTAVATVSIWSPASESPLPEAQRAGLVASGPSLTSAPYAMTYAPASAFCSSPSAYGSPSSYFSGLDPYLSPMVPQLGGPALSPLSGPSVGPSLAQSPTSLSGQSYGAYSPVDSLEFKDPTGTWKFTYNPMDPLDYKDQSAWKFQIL

Only a part is listed here, and it is no random draw. At the low end of the ranking, values are background and their order means little.

For this experiment, the target named is CRX (UniProt O43186). In words: DAPPL (digital affinity profiling via proximity ligation, sequencing). Conditions: 10 mM Tris-HCl pH 7.5, 50 mM NaCl, 1 mM DTT, 4% glycerol, room temperature, 30 min; GST-TFs on glutathione beads, 16-mer random dsDNA library, 0.1% …; high values mean tight binding; double strand, one strand shown; scale: fold enrichment (6-mer frequency, TF over GST control).
For TGCGCG, the binding signal was 0.964.
TCGCAA registered a binding signal of 1.05.
In turn, CATGAA returned a binding signal of 0.956.
In turn, CGCCCG came in with a binding signal of 0.85.
CTGGTT yielded a binding signal of 1.22.
CTGCCG yielded a binding signal of 0.858.
The sequence ATACAG came in with a binding signal of 1.02.
Take CAAAAA: the binding signal is 1.02.
On to CTCGAT, for which the binding signal is 1.48.
TGCCTG showed a binding signal of 0.987.
ACTAAA displayed a binding signal of 1.6.
For the sequence CCGGTA, the binding signal is 0.834.
As to TCCTCA, the binding signal was 1.4.
In the case of TCTCCC, the binding signal was 1.7.
The sequence CCTGGG registered a binding signal of 0.97.
Turning to ATAAAT, the binding signal stood at 1.75.
With CTCTGC, the binding signal turned out to be 1.2.
ATGTGT had a binding signal of 0.882.
On to ACATAT, for which the binding signal stood at 1.12.
The sequence CTTATG displayed a binding signal of 2.2.
On to ATTTAC, for which the binding signal stood at 1.75.
CTGCCA had a binding signal of 0.9.
With ACTTTG the figure was 1.18; with TCGCTT, 1.15; with TGCAAC, 0.92.
ATATGG: the binding signal is 1.19.
With CCCTTT, the binding signal was determined as 1.35.
For the sequence GTCTTA, the binding signal was determined as 1.94.
The sequence TACACC showed a binding signal of 1.06.
In turn, TGGCAA displayed a binding signal of 1.07.
Sequence CTCGTA had a binding signal of 1.38.
The sequence ATGCAC displayed a binding signal of 0.978.
With AACCAA the figure was 1.09.
The result for ACATAC reads 0.888.
In the case of GATTCT, the binding signal was determined as 1.58.
With GCTATA, the binding signal was 1.23.
Sequence CTGTTT returned a binding signal of 1.08.
Consider ATCTTT, for which the binding signal was 1.76.
As for TTGGCC, the binding signal is 0.974.
